# Test system: BAF complex subunits and histone proteins
# Assay: Mass spectrometry proteomics of purified HA-SS18 WT and HA-SS18-SSX1 complexes (Tables 5A-5E)
# Design: species or system human
# Details: for Total / Unique: HA-SS18SSX1_CHR_peptides; for Total: total peptides of the identified protein; for Unique: unique peptides of the identified protein
# [1] = HA-SS18SSX1_CHR_peptides: protein identified in the HA-SS18-SSX1 purification from solubilized chromatin (CHR), HEK-293T
# [2] = HA-SS18SSX1 purification, NE (soluble nuclear extract) fraction, HEK-293T, peptides per identified protein
# [3] = HA-SS18WT_CHR_peptides: HA-SS18 WT purification from nuclease-treated solubilized chromatin (CHR), HEK-293T, label = protein identified
# [4] = HA-SS18WT_NE_peptides: HA-SS18 WT complexes purified from nuclear extract (NE), HEK-293T, label = protein identified (Gene Symbol)
# [5] = HA-SS18SSX1_NE_peptides: protein co-purified with HA-SS18-SSX1 BAF complexes from soluble nuclear extract (NE), HEK-293T cells
# [6] = HA-SS18WT_CHR_peptides: protein identified in HA-SS18 WT BAF complex purification from nuclease-treated solubilized chromatin (CHR), HEK-293T
molecule,measurement,setting,value
"PRDM10 (protein, UniProt Q9NQV6 1-1147, looked up) PR domain zinc finger protein …: MDSKDESSHVWPTSAEHEQNAAQVHFVPDTGTVAQIVYTDDQVRPPQQVVYTADGASYTSVDGPEHTLVYIHPVEAAQTLFTDPGQVAYVQQDATAQQASLPVHNQVLPSIESVDGSDPLATLQTPLGRLEAKEEEDEDEDEDTEEDEEEDGEDTDLDDWEPDPPRPFDPHDLWCEECNNAHASVCPKHGPLHPIPNRPVLTRARASLPLVLYIDRFLGGVFSKRRIPKRTQFGPVEGPLVRGSELKDCYIHLKVSLDKGDRKERDLHEDLWFELSDETLCNWMMFVRPAQNHLEQNLVAYQYGHHVYYTTIKNVEPKQELKVWYAASYAEFVNQKIHDISEEERKVLREQEKNWPCYECNRRFISSEQLQQHLNSHDEKLDVFSRTRGRGRGRGKRRFGPGRRPGRPPKFIRLEITSENGEKSDDGTQDLLHFPTKEQFDEAEPATLNGLDQPEQTTIPIPQLPQETQSSLEHEPETHTLHLQPQHEESVVPTQSTLTADDMRRAKRIRLELQNAALQHLFIRKSFRPFKCLQCGKAFREKDKLDQHLRFHGREGNCPLTCDLCNKGFISSTSLESHMKLHSDQKTYSCIFCPESFDRLDLLKDHVAIHINDGYFTCPTCKKRFPDFIQVKKHVRSFHSEKIYQCTECDKAFCRPDKLRLHMLRHSDRKDFLCSTCGKQFKRKDKLREHMQRMHNPEREAKKADRISRSKTFKPRITSTDYDSFTFKCRLCMMGFRRRGMLVNHLSKRHPDMKIEEVPELTLPIIKPNRDYFCQYCDKVYKSASKRKAHILKNHPGAELPPSIRKLRPAGPGEPDPMLSTHTQLTGTIATPPVCCPHCSKQYSSKTKMVQHIRKKHPEFAQLSNTIHTPLTTAVISATPAVLTTDSATGETVVTTDLLTQAMTELSQTLTTDYRTPQGDYQRIQYIPVSQSASGLQQPQHIQLQVVQVASATSPHQSQQSTVDVGQLHDPQPYPQHAIQVQHIQVSGQPLSPSAQQAQQGLSPSHIQGSSSTQGQALQQQQQQQQNSSVQHTYLPSAWNSFRGYSSEIQMMTLPPGQFVITDSGVATPVTTGQVKAVTSGHYVLSESQSELEEKQTSALSGGVQVEPPAHSDSLDPQTNSQQQTTQYIITTTTNGNGSSEVHITKP",Total,,1
same,Unique,,1
"CWC15 (protein, UniProt Q9P013 2-229, looked up) Spliceosome-associated …: TTAARPTFEPARGGRGKGEGDLSQLSKQYSSRDLPSHTKIKYRQTTQDAPEEVRNRDFRRELEERERAAAREKNRDRPTREHTTSSSVSKKPRLDQIPAANLDADDPLTDEEDEDFEEESDDDDTAALLAELEKIKKERAEEQARKEQEQKAEEERIRMENILSGNPLLNLTGPSQPQANFKVKRRWDDDVVFKNCAKGVDDQKKDKRFVNDTLRSEFHKKFMEKYIK",Total,,1
same,Unique,,1
"NOP58 (protein, UniProt Q9Y2X3 1-529, looked up) Nucleolar protein 58: MLVLFETSVGYAIFKVLNEKKLQEVDSLWKEFETPEKANKIVKLKHFEKFQDTAEALAAFTALMEGKINKQLKKVLKKIVKEAHEPLAVADAKLGGVIKEKLNLSCIHSPVVNELMRGIRSQMDGLIPGVEPREMAAMCLGLAHSLSRYRLKFSADKVDTMIVQAISLLDDLDKELNNYIMRCREWYGWHFPELGKIISDNLTYCKCLQKVGDRKNYASAKLSELLPEEVEAEVKAAAEISMGTEVSEEDICNILHLCTQVIEISEYRTQLYEYLQNRMMAIAPNVTVMVGELVGARLIAHAGSLLNLAKHAASTVQILGAEKALFRALKSRRDTPKYGLIYHASLVGQTSPKHKGKISRMLAAKTVLAIRYDAFGEDSSSAMGVENRAKLEARLRTLEDRGIRKISGTGKALAKTEKYEHKSEVKTYDPSGDSTLPTCSKKRKIEQVDKEDEITEKKAKKAKIKVKVEEEEEEKVAEEEETSVKKKKKRGKKKHIKEEPLSEEEPCTSTAIASPEKKKKKKKKRENED",Total (total peptides),[1],26
same,Unique (unique peptides),[1],19
same,Total (total peptides),[2],11
same,Unique (unique peptides),[2],10
same,Total (peptides),[3],24
same,Unique (peptides),[3],14
same,Total (peptides),[4],7
same,Unique (peptides),[4],7
SAP30BP (protein) MAGKKNVLSSLAVYAEDSEPESDGEAGIEAVGSAAEEKGGLVSDAYGEDDFSRLGGDEDGYEEEEDENSRQSEDDDSETEKPEADDPKDNTEAEKRDPQELVASFSERVRNMSPDEIKIPPEPPGRCSNHLQDKIQKLYERKIKEGMDMNYIIQRKKEFRNPSIYEKLIQFCAIDELGTNYPKDMFDPHGWSEDSYYEALAKAQKIEMDKLEKAKKERTKIEFVTGTKKGTTTNATSTTTTTASTAVADAQKRKSKWDSAIPVTTIAQPTILTTTATLPAVVTVTTSASGSKTTVISAVGTIVKKAKQ,Total,,1
same,Unique,,1
"DNAJC11 (protein, UniProt Q9NVH1 2-559, looked up) DnaJ homolog subfamily C …: ATALSEEELDNEDYYSLLNVRREASSEELKAAYRRLCMLYHPDKHRDPELKSQAERLFNLVHQAYEVLSDPQTRAIYDIYGKRGLEMEGWEVVERRRTPAEIREEFERLQREREERRLQQRTNPKGTISVGVDATDLFDRYDEEYEDVSGSSFPQIEINKMHISQSIEAPLTATDTAILSGSLSTQNGNGGGSINFALRRVTSAKGWGELEFGAGDLQGPLFGLKLFRNLTPRCFVTTNCALQFSSRGIRPGLTTVLARNLDKNTVGYLQWRWGIQSAMNTSIVRDTKTSHFTVALQLGIPHSFALISYQHKFQDDDQTRVKGSLKAGFFGTVVEYGAERKISRHSVLGAAVSVGVPQGVSLKVKLNRASQTYFFPIHLTDQLLPSAMFYATVGPLVVYFAMHRLIIKPYLRAQKEKELEKQRESAATDVLQKKQEAESAVRLMQESVRRIIEAEESRMGLIIVNAWYGKFVNDKSRKSEKVKVIDVTVPLQCLVKDSKLILTEASKAGLPGFYDPCVGEEKNLKVLYQFRGVLHQVMVLDSEALRIPKQSHRIDTDG",Total,,1
same,Unique,,1
same,Total (peptides),[5],2
same,Unique (peptides),[5],2
same,Total (peptides),[4],2
same,Unique (peptides),[4],2
"NVL (protein, UniProt O15381 1-856, looked up) Nuclear valosin-containing …: MKPRPAGFVDNKLKQRVIQYLTSNKCGKYVDIGVLASDLQRVYSIDYGRRKRNAFRIQVEKVFSIISSEKELKNLTELEDEHLAKRARQGEEDNEYTESYSDDDSSMEDYPDPQSANHMNSSLLSLYRKGNPDSVSNTPEMEQRETTSSTPRISSKTGSIPLKTPAKDSEGGWFIDKTPSVKKDSFFLDLSCEKSNPKKPITEIQDSKDSSLLESDMKRKGKLKNKGSKRKKEDLQEVDGEIEAVLQKKAKARGLEFQISNVKFEDVGGNDMTLKEVCKMLIHMRHPEVYHHLGVVPPRGVLLHGPPGCGKTLLAHAIAGELDLPILKVAAPEIVSGVSGESEQKLRELFEQAVSNAPCIIFIDEIDAITPKREVASKDMERRIVAQLLTCMDDLNNVAATARVLVIGATNRPDSLDPALRRAGRFDREICLGIPDEASRERILQTLCRKLRLPQAFDFCHLAHLTPGFVGADLMALCREAAMCAVNRVLMKLQEQQKKNPEMEDLPSKGVQEERLGTEPTSETQDELQRLLGLLRDQDPLSEEQMQGLCIELNDFIVALSSVQPSAKREGFVTVPNVTWADIGALEDIREELTMAILAPVRNPDQFKALGLVTPAGVLLAGPPGCGKTLLAKAVANESGLNFISVKGPELLNMYVGESERAVRQVFQRAKNSAPCVIFFDEVDALCPRRSDRETGASVRVVNQLLTEMDGLEARQQVFIMAATNRPDIIDPAILRPGRLDKTLFVGLPPPADRLAILKTITKNGTKPPLDADVNLEAIAGDLRCDCYTGADLSALVREASICALRQEMARQKSGNEKGELKVSHKHFEEAFKKVRSSISKKDQIMYERLQESLSR",Total,,1
same,Unique,,1
same,Total (total peptides),[6],1
same,Unique (unique peptides),[6],1
"NOP16 (protein, UniProt Q9Y3C1 1-178, looked up) Nucleolar protein 16: MPKAKGKTRRQKFGYSVNRKRLNRNARRKAAPRIECSHIRHAWDHAKSVRQNLAEMGLAVDPNRAVPLRKRKVKAMEVDIEERPKELVRKPYVLNDLEAEASLPEKKGNTLSRDLIDYVRYMVENHGEDYKAMARDEKNYYQDTPKQIRSKINVYKRFYPAEWQDFLDSLQKRKMEVE",Total,,1
same,Unique,,1
same,Total (peptides),[3],3
same,Unique (peptides),[3],3
"GSG2 (protein, UniProt Q8TF76 1-798, looked up) Serine/threonine-protein …: MAASLPGPGSRLFRTYGAADGRRQRRPGREAAQWFPPQDRRRFFNSSGSSDASIGDPSQSDDPDDPDDPDFPGSPVRRRRRRPGGRVPKDRPSLTVTPKRWKLRARPSLTVTPRRLGLRARPPQKCSTPCGPLRLPPFPSRDSGRLSPDLSVCGQPRDGDELGISASLFSSLASPCPGSPTPRDSVISIGTSACLVAASAVPSGLHLPEVSLDRASLPCSQEEATGGAKDTRMVHQTRASLRSVLFGLMNSGTPEDSEFRADGKNMRESCCKRKLVVGNGPEGPGLSSTGKRRATGQDSCQERGLQEAVRREHQEASVPKGRIVPRGIDRLERTRSSRKSKHQEATETSLLHSHRFKKGQKLGKDSFPTQDLTPLQNVCFWTKTRASFSFHKKKIVTDVSEVCSIYTTATSLSGSLLSECSNRPVMNRTSGAPSSWHSSSMYLLSPLNTLSISNKKASDAEKVYGECSQKGPVPFSHCLPTEKLQRCEKIGEGVFGEVFQTIADHTPVAIKIIAIEGPDLVNGSHQKTFEEILPEIIISKELSLLSGEVCNRTEGFIGLNSVHCVQGSYPPLLLKAWDHYNSTKGSANDRPDFFKDDQLFIVLEFEFGGIDLEQMRTKLSSLATAKSILHQLTASLAVAEASLRFEHRDLHWGNVLLKKTSLKKLHYTLNGKSSTIPSCGLQVSIIDYTLSRLERDGIVVFCDVSMDEDLFTGDGDYQFDIYRLMKKENNNRWGEYHPYSNVLWLHYLTDKMLKQMTFKTKCNTPAMKQIKRKIQEFHRTMLNFSSATDLLCQHSLFK",Total,,1
same,Unique,,1
same,Total (total peptides),[6],1
same,Unique (unique peptides),[6],1

# Source: US20250283871A1, “COMPOSITIONS AND METHODS FOR MODULATING THE INTERACTION BETWEEN SS18-SSX FUSION ONCOPROTEIN AND NUCLEOSOMES” (Dana-Farber Cancer Institute, Inc., priority 2020, published 2025)
